This assay addresses DHPR β2a subunit, full length (mouse) (UniProt Q8CC27). Kind of assay: other fluorescence titration; tryptophan fluorescence quenching: intrinsic fluorescence of the β subunit or β1a-SH3 domain in the cuvette (sub-micromolar; 50 nM β1a-FL for the AID titration) monitored while titrating the II-III loop or peptides; excitation 280 nm, emission 340 nm; corrected for dilution and intrinsic fluorescence of the titrant; nonlinear regression; both purified.

The chains behind the UniProt entries cited, without tags or fusion partners. Residues count along the entry.
UniProt Q8CC27: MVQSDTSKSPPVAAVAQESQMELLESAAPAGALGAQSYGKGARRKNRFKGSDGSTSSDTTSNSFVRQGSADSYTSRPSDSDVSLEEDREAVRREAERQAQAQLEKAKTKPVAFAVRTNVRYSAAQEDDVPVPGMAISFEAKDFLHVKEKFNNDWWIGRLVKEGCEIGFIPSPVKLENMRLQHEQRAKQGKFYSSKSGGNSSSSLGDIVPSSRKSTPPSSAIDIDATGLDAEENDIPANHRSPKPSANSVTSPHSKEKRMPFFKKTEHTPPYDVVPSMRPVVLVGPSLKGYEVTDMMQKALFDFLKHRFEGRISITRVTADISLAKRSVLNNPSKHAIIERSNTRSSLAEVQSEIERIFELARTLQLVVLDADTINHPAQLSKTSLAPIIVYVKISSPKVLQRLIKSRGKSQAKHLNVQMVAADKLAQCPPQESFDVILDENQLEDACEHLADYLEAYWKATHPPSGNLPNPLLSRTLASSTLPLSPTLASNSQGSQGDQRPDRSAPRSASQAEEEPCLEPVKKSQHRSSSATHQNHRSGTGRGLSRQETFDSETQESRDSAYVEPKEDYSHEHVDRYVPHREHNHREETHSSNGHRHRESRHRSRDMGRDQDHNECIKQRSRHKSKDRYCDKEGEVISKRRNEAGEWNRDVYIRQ
UniProt P07293, residues 720-765: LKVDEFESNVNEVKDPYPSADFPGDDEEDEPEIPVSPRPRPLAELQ

Results are given in words; binding and its absence hold for the method and conditions named.

The text below walks through data of PMC12650144, “Interactive Role of the DHPR β1a SH3 Domain in Skeletal Muscle Excitation–Contraction Coupling” (Biomolecules, 2025).

On to “α1s II–III loop C region peptide (residues 720–765) (from UniProt P07293 720-765)”, for which the binding entry is recorded as “no binding”.
